In paper PMC7913925, “Design and Evaluation of a Polypeptide That Mimics the Integrin Binding Site for EDA Fibronectin to Block Profibrotic Cell Activity” (International Journal of Molecular Sciences, 2021) one finds binding data, which are given here for 1 substance.

Amino acid sequences for entries named in this document (tags omitted). A change or cut given only in a name is not applied to a line headed by its entry. Residues count along the entry.
UniProt Q00651: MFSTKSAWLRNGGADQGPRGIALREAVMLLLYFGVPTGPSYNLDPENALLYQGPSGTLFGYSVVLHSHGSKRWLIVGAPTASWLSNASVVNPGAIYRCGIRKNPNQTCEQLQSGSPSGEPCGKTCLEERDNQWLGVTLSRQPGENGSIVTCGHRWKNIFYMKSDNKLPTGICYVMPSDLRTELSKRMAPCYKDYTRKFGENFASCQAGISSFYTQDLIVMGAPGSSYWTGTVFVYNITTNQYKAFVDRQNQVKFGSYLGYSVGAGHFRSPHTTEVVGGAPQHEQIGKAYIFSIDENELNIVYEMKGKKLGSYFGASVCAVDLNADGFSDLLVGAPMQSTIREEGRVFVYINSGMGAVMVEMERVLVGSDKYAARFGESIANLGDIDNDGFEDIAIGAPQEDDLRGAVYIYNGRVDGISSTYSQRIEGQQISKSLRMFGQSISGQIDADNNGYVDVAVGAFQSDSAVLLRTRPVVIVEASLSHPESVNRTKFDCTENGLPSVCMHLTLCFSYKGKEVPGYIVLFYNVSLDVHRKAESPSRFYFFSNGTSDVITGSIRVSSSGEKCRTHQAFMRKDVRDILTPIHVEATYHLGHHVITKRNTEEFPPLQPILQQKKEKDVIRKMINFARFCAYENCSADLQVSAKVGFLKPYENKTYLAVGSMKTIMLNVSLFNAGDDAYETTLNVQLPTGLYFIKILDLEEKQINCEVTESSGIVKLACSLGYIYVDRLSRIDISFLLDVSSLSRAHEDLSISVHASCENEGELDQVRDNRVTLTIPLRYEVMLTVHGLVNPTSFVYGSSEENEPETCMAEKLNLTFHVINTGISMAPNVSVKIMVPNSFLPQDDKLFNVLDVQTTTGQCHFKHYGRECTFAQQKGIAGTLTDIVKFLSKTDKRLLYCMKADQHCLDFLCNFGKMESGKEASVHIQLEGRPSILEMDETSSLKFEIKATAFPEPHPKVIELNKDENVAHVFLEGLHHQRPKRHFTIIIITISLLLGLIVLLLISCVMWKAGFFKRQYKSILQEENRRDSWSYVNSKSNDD
UniProt P10923, residues 17-294: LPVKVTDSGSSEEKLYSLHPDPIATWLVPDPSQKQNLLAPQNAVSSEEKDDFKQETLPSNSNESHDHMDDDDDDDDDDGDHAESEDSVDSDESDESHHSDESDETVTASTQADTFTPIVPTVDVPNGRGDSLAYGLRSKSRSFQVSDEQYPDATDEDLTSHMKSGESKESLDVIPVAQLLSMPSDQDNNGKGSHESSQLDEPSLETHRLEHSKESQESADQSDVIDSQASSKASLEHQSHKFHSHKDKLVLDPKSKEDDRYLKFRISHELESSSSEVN

No constants are given. Whether binding was seen depends on the method and setting. Binding seen in cells or lysates may run through a third protein. A result given as binding can be weak or reduced; the word gives no strength.

This assay addresses integrin α4 protein (ITGA4) (not stated (endogenous in fibroblasts; mouse NIH/3T3 and human HFL1 cells were cultured)) (UniProt Q00651). Kind of assay: co-IP; 25 µg total protein of cell lysate in nondenaturing lysis buffer, anti-ITGA4 antibodies on protein A/G sepharose beads, Western blot of coeluted proteins; cells treated 48 h with TGF-β1, AF38Pep or TGF-β1+AF38Pep.

On to “osteopontin (OPN) (from UniProt P10923 17-294) (ligand)”, for which the binding result was “binds”.
